Measured values published in article PMC10212922, “A blocking monoclonal antibody reveals dimerization of intracellular domains of ALK2 associated with genetic disorders” (Nature Communications, 2023).
These are yes or no findings as the source states them, for the method shown. Binding seen in cells or lysates may run through a third protein. Some binding calls cover weakened binding; strength is not graded here.

Amino acid sequences for entries named in this document (tags omitted). Residues count along the entry.
UniProt Q13705, residues 19-512: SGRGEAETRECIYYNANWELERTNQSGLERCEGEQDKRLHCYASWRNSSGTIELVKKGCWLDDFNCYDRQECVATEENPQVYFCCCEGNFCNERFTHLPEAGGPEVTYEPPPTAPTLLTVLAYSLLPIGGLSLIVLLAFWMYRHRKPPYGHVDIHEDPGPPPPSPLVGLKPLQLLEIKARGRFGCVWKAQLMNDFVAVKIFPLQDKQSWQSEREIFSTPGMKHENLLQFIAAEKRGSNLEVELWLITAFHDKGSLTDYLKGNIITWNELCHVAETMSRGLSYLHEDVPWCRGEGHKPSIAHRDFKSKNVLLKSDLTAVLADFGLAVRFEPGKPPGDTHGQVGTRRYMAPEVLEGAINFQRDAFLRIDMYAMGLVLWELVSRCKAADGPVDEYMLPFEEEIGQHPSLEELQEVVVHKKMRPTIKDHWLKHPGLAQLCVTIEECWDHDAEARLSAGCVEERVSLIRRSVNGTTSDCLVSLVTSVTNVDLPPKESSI

Key:
[1] = target: ActR-IIB with LgBiT or SmBiT (NanoBiT) (UniProt Q13705); assay: split reporter; ActR-IIB with LgBiT and with SmBiT in HEK293A cells; stimulated with activin A (Supplementary Fig. 5c)
[2] = target: ActR-IIB with LgBiT or SmBiT (NanoBiT) (UniProt Q13705); assay: split reporter; ActR-IIB with LgBiT and with SmBiT in HEK293A cells; stimulated with BMP7 (Supplementary Fig. 5c)
[3] = target: ActR-IIB with LgBiT or SmBiT (NanoBiT) (UniProt Q13705); assay: split reporter; ALK2 and ActR-IIB, one with LgBiT and one with SmBiT, in HEK293A cells; with BMP7 or activin A (Supplementary Fig. 5d)

ActR-IIB with LgBiT or SmBiT (NanoBiT) (from UniProt Q13705 19-512) (receptor)
binding [1]: binds
binding [2]: no binding (condition: stimulated with BMP7)

B1: wild-type ALK2-LgBiT / ALK2-SmBiT (receptor, UniProt Q04771 21-509)
chain: MEDEKPKVNPKLYMCVCEGLSCGNEDHCEGQQCFSSLSINDGFHVYQKGCFQVYEQGKMTCKTPPSPGQAVECCQGDWCNRNITAQLPTKGKSFPGTQNFHLEVGLIILSVVFAVCLLACLLGVALRKFKRRNQERLNPRDVEYGTIEGLITTNVGDSTLADLLDHSCTSGSGSGLPFLVQRTVARQITLLECVGKGRYGEVWRGSWQGENVAVKIFSSRDEKSWFRETELYNTVMLRHENILGFIASDMTSRHSSTQLWLITHYHEMGSLYDYLQLTTLDTVSCLRIVLSIASGLAHLHIEIFGTQGKPAIAHRDLKSKNILVKKNGQCCIADLGLAVMHSQSTNQLDVGNNPRVGTKRYMAPEVLDETIQVDCFDSYKRVDIWAFGLVLWEVARRMVSNGIVEDYKPPFYDVVPNDPSFEDMRKVVCVDQQRPNIPNRWFSDPTLTSLAKLMKECWYQNPSARLTALRIKKTLTKIDNSLDKLKTDC
binding [3]: binds
